Converted amounts (≈) assume the structure as drawn.
Columns and labels:
[1] = test system: Enterococcus faecalis; test: Antibacterial activity against vancomycin-susceptible Enterococcus faecalis EF 12704 by broth microdilution method; assay type: functional
[2] = test system: Enterococcus faecalis; test: Antibacterial activity against vancomycin-resistant Enterococcus faecalis EF NJ1 by broth microdilution method; assay type: functional

SMILES: CN[C@H](CC(C)C)C(=O)N[C@H]1C(=O)N[C@@H](CC(N)=O)C(=O)N[C@H]2C(=O)N[C@H]3C(=O)N[C@H](C(=O)N[C@H](C(=O)O)c4cc(O)cc(O)c4-c4cc3ccc4O)[C@H](O)c3ccc(c(Cl)c3)Oc3cc2cc(c3O[C@@H]2O[C@H](CO)[C@@H](O)[C@H](O)[C@H]2O[C@H]2C[C@](C)(N)[C@H](O)[C@H](C)O2)Oc2ccc(cc2Cl)[C@H]1O [VANCOMYCIN]
- MIC [1]: 2 µg/mL (≈ 1.38 µM)
- MIC [2]: > 256 µg/mL

Reference: ChEMBL document CHEMBL1649273, “In vivo activity of a novel anti-methicillin-resistant Staphylococcus aureus cephalosporin, ceftaroline, against vancomycin-susceptible and -resistant Enterococcus faecalis strains in a rabbit endocarditis model: a comparative study with linezolid and vancomycin” (2009)
